These are yes or no findings as the source states them, for the method shown. For some assays here: In cells and extracts the contact can be indirect. Some entries that bind do so weakly or less than the wild type.
T1: BADC3 (AT3G15690), Single hybrid motif protein, Arabidopsis thaliana (Arabidopsis thaliana)
T1 sequence: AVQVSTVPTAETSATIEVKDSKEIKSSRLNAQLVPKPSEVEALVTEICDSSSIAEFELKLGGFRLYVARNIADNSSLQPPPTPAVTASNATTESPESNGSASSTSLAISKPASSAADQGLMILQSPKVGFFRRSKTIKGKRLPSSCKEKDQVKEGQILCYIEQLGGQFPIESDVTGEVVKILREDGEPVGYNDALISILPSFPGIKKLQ

T2: BADC2 (AT1G52670), Single hybrid motif protein, Arabidopsis thaliana (Arabidopsis thaliana)
T2 sequence: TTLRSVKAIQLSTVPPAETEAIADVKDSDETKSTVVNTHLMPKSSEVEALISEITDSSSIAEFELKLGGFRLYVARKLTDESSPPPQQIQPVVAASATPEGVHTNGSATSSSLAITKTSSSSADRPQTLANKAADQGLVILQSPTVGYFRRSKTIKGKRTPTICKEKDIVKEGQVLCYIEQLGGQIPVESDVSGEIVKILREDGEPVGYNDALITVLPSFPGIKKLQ

T3: biotin carboxylase (BC) subunit of hetACCase, AT5G35360, Arabidopsis thaliana (Arabidopsis thaliana) (UniProt O04983)
T3 sequence (looked up): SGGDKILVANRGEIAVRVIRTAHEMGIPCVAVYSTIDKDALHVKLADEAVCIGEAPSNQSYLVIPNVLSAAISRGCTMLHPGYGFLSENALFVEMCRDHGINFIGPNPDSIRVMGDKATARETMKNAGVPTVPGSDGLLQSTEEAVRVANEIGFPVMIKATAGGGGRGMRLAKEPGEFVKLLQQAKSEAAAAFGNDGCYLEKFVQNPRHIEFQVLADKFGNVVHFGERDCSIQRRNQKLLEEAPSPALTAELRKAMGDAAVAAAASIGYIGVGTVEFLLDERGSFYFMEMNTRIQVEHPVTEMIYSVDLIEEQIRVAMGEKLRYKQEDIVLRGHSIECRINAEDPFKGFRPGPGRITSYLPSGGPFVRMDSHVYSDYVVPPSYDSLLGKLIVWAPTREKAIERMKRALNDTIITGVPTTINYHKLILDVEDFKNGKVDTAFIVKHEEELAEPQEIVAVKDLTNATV


Experiments:
[1] = target: BADC1 (AT3G56130), biotin/lipoyl attachment domain-containing protein, Arabidopsis thaliana (Arabidopsis thaliana); experiment: intact mass analysis
[2] = target: BADC1 (AT3G56130), biotin/lipoyl attachment domain-containing protein, Arabidopsis thaliana (Arabidopsis thaliana); experiment: intact mass analysis; monomer and dimer band on SDS-PAGE without DTT (disulfide-linked homodimer)
[3] = target: T1, BADC3 (AT3G15690), Single hybrid motif protein, Arabidopsis thaliana (Arabidopsis thaliana); experiment: yeast two-hybrid
[4] = target: T2, BADC2 (AT1G52670), Single hybrid motif protein, Arabidopsis thaliana (Arabidopsis thaliana); experiment: yeast two-hybrid
[5] = target: T1, BADC3 (AT3G15690), Single hybrid motif protein, Arabidopsis thaliana (Arabidopsis thaliana); experiment: intact mass analysis
[6] = target: T3, biotin carboxylase (BC) subunit of hetACCase, AT5G35360, Arabidopsis thaliana (Arabidopsis thaliana); experiment: co-expression in E. coli, Ni-NTA co-purification
[7] = target: T1, BADC3 (AT3G15690), Single hybrid motif protein, Arabidopsis thaliana (Arabidopsis thaliana); experiment: intact mass analysis; monomer and dimer band on SDS-PAGE without DTT (disulfide-linked homodimer)

Row | Binder | binding [1] | binding [2] | binding [3] | binding [4] | binding [5] | binding [6] | binding [7]
1 | BADC1 (AT3G56130), biotin/lipoyl attachment domain-containing protein, Arabidopsis thaliana (other, Recombinant and yeast two-hybrid constructs were made without the transit peptide predicted by TargetP; also called AtBADC1) AKAAKSSTTTISDGSSDASVSDGKKTVRRITFPKEVEALVHEMCDETEVAVLQLKVGDFEMNLKRKIGAATNPIPVADISPTVAPPIPSEPMNKSASSAPSPSQAKPSSEKVSPFKNTSYGKPAKLAALEASGSTNYVLVTSPAVGKFQRSRTVKGKKQSPSCKEGDAIKEGQVIGYLHQLGTELPVTSDVAGEVLKLLSDDGDSVGYGDPLVAVLPSFHDINIQ | binds | binds | binds | binds | – | – | –
2 | BADC2 (AT1G52670), Single hybrid motif protein, Arabidopsis thaliana (other, His-tagged or untagged from E. coli, bait/prey fusion in yeast two-hybrid, native protein in co-IPs; also called AtBADC2) TTLRSVKAIQLSTVPPAETEAIADVKDSDETKSTVVNTHLMPKSSEVEALISEITDSSSIAEFELKLGGFRLYVARKLTDESSPPPQQIQPVVAASATPEGVHTNGSATSSSLAITKTSSSSADRPQTLANKAADQGLVILQSPTVGYFRRSKTIKGKRTPTICKEKDIVKEGQVLCYIEQLGGQIPVESDVSGEIVKILREDGEPVGYNDALITVLPSFPGIKKLQ | – | – | binds | – | – | – | –
3 | BADC3 (AT3G15690), Single hybrid motif protein, Arabidopsis thaliana (protein) AVQVSTVPTAETSATIEVKDSKEIKSSRLNAQLVPKPSEVEALVTEICDSSSIAEFELKLGGFRLYVARNIADNSSLQPPPTPAVTASNATTESPESNGSASSTSLAISKPASSAADQGLMILQSPKVGFFRRSKTIKGKRLPSSCKEKDQVKEGQILCYIEQLGGQFPIESDVTGEVVKILREDGEPVGYNDALISILPSFPGIKKLQ | – | – | – | – | binds | binds | binds
